The source of these data is doi:10.1101/2021.06.20.449126.

The experiment concerns the target RPRD1A CC domain variant, 3F-tagged (human). Kind of experiment: co-IP.

No constants are given. Whether binding was seen depends on the method and setting. In cells and extracts the contact can be indirect. Binding can be weak; no strength is given.

B1: endogenous RPRD1B (protein, UniProt Q9NQG5 1-326)
chain: MSSFSESALEKKLSELSNSQQSVQTLSLWLIHHRKHAGPIVSVWHRELRKAKSNRKLTFLYLANDVIQNSKRKGPEFTREFESVLVDAFSHVAREADEGCKKPLERLLNIWQERSVYGGEFIQQLKLSMEDSKSPPPKATEEKKSLKRTFQQIQEEEDDDYPGSYSPQDPSAGPLLTEELIKALQDLENAASGDATVRQKIASLPQEVQDVSLLEKITDKEAAERLSKTVDEACLLLAEYNGRLAAELEDRRQLARMLVEYTQNQKDVLSEKEKKLEEYKQKLARVTQVRKELKSHIQSLPDLSLLPNVTGGLAPLPSAGDLFSTD
In the case of B1, the binding result is recorded as “binds”.
